Assay results from PMC6054531.
These are yes or no findings as the source states them, for the method shown. In cells and extracts the contact can be indirect. Sequences can lack the tags named with a protein.

Amino acid sequences for entries named in this document (tags omitted). A change or cut given only in a name is not applied to a line headed by its entry. Chains listed by the source or under a name are the forms on record and can include a tag or linker.
human F508del-CFTR (P13569, form named): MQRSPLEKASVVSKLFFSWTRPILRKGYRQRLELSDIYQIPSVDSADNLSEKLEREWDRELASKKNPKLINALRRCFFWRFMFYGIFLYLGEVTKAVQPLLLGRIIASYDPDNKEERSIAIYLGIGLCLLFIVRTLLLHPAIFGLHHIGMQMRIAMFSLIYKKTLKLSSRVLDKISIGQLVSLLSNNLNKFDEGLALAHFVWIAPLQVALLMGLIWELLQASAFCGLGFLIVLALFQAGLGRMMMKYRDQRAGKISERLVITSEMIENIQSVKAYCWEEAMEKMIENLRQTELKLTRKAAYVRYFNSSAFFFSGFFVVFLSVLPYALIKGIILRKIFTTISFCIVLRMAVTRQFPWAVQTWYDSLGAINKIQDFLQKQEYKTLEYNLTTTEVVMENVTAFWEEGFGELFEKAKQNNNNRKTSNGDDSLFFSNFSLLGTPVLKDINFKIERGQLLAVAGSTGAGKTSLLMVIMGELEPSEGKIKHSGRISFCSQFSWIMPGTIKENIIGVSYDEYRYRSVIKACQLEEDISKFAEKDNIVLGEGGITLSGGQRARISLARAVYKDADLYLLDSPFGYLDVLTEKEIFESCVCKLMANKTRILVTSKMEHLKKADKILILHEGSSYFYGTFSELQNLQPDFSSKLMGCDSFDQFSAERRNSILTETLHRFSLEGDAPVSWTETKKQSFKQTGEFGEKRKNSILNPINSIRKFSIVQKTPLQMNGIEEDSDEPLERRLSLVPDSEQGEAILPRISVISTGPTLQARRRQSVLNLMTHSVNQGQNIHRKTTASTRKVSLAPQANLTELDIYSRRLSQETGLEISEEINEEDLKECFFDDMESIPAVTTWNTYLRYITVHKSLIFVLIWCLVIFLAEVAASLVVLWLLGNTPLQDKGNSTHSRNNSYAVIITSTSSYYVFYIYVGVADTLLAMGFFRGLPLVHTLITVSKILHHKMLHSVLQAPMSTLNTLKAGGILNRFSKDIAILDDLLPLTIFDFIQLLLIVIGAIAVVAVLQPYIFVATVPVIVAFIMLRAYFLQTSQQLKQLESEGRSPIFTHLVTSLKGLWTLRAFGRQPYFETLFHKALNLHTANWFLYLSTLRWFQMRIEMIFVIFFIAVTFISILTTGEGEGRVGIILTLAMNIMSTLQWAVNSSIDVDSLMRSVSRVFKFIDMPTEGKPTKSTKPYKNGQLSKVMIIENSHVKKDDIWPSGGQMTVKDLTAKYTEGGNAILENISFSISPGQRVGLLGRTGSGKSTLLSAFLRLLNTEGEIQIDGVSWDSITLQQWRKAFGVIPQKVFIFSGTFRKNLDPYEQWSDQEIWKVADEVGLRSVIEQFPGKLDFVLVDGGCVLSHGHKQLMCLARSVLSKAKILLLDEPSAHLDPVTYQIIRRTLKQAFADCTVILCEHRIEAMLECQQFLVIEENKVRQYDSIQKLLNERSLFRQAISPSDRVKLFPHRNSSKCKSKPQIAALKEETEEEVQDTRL

Biological target: T1, wild-type SLC6A14 bearing a C-terminal FLAG tag (UniProt Q9UN76)
T1 sequence: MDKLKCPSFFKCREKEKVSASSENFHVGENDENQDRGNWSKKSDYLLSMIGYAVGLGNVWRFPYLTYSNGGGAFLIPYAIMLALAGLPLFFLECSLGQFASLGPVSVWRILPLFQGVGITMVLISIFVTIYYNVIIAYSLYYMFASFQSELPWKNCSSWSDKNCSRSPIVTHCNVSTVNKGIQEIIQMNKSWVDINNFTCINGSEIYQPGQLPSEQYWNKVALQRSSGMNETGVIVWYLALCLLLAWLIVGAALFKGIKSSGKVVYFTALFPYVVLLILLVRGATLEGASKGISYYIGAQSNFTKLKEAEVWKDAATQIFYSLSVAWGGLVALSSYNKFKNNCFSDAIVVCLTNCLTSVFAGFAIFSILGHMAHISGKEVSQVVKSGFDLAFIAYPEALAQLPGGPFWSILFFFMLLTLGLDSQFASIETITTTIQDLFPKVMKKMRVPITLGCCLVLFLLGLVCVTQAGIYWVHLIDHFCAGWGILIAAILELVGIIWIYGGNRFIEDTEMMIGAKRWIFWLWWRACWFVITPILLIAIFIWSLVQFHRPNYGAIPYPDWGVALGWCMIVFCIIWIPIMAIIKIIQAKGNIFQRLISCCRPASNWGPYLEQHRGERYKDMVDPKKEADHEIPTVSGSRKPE
Test: co-IP; BHK cells stably expressing F508del-CFTR, transfected with SLC6A14-FLAG or empty vector, overnight at 27°C; lysis in 50 mM EDTA, 150 mM Tris base, 50 mM NaCl, 1% Triton X-100, pH 7.4; IP with anti-FLAG antibody (or anti-CFTR 596 antibody, per the legend) and protein A/G agarose at 4°C; western blot

Substance: human F508del-CFTR (from UniProt P13569 1-1480)
- binding: no binding
